Source: article PMC3408473
Results are given in words; binding and its absence hold for the method and conditions named. Binding seen in cells or lysates may run through a third protein. Some results given as binding are weak or reduced against the parent protein; the word gives no strength.

Chains of the proteins cited; added tags and fusions are not shown. Residues count along the entry.
UniProt P25942, residues 21-277: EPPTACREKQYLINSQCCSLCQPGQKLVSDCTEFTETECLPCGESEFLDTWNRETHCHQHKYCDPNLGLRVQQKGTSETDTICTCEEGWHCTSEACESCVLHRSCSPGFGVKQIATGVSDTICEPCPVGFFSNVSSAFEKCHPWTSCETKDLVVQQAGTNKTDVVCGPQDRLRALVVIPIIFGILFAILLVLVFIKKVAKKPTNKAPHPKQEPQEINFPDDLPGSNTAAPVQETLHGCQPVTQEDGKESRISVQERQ

Target: human CD40 (human) (UniProt P25942)
Experiment: co-IP; 2x10^7 CH12.TRAF3+/+ or CH12.TRAF3-/- mouse B cells expressing hCD40 incubated in 1 ml BCM10 for 10 min at 37°C with protein G magnetic beads coated (DSS-conjugated) with anti-hCD40 G28.5 or control MOPC-21 Ab; beads and cells pelleted and lysed; hCD40 immunoprecipitated with the same beads; Western blot

- binding: binds
B1: TRAF6 (protein, UniProt P70196 1-530)
chain: MSLLNCENSCGSSQSSSDCCAAMAASCSAAVKDDSVSGSASTGNLSSSFMEEIQGYDVEFDPPLESKYECPICLMALREAVQTPCGHRFCKACIIKSIRDAGHKCPVDNEILLENQLFPDNFAKREILSLTVKCPNKGCLQKMELRHLEDHQVHCEFALVNCPQCQRPFQKCQVNTHIIEDCPRRQVSCVNCAVSMAYEEKEIHDQSCPLANIICEYCGTILIREQMPNHYDLDCPTAPIPCTFSVFGCHEKMQRNHLARHLQENTQLHMRLLAQAVHNVNLALRPCDAASPSRGCRPEDPNYEETIKQLESRLVRQDHQIRELTAKMETQSMYVGELKRTIRTLEDKVAEMEAQQCNGIYIWKIGNFGMHLKSQEEERPVVIHSPGFYTGRPGYKLCMRLHLQLPTAQRCANYISLFVHTMQGEYDSHLPWPFQGTIRLTILDQSEALIRQNHEEVMDAKPELLAFQRPTIPRNPKGFGYVTFMHLEALRQGTFIKDDTLLVRCEVSTRFDMGGLRKEGFQPRSTDAGV
